Test results as given in paper PMC9943875, “Agonist-controlled competition of RAR and VDR nuclear receptors for heterodimerization with RXR is manifested in their DNA binding” (The Journal of Biological Chemistry, 2023).
These are yes or no findings as the source states them, for the method shown. In cells and extracts the contact can be indirect. Some binding calls cover weakened binding; strength is not graded here. Tags and fused reporters may be left off the sequences shown.

Amino acid sequences for entries named in this document (tags omitted).
UniProt P19793: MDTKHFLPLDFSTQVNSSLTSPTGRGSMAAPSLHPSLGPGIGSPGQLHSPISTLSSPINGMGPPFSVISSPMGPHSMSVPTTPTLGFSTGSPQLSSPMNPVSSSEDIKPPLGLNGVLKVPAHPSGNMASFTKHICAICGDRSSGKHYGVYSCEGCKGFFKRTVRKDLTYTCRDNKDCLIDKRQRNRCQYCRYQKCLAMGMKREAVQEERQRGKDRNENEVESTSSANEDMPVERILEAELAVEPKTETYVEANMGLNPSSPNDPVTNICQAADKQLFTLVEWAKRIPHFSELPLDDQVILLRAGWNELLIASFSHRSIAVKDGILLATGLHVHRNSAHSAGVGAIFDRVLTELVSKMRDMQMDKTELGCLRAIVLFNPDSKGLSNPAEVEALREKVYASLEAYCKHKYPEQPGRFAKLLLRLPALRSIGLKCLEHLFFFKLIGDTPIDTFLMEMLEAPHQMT

Molecular target: mCherry-RXR (retinoid X receptor alpha, N-terminally tagged with mCherry) (UniProt P19793)
Experiment: FRET or BRET; FLIM-FRET in nuclei of live transfected cells; donor EGFP, acceptor mScarlet3 or mCherry; E from amplitude-weighted average donor lifetimes against donor-only samples; cells non-treated or treated with 100 nM calcitriol

B1: EGFP-VDR (vitamin D receptor, N-terminally tagged with EGFP) (receptor, UniProt P11473 1-427, looked up)
chain: MEAMAASTSLPDPGDFDRNVPRICGVCGDRATGFHFNAMTCEGCKGFFRRSMKRKALFTCPFNGDCRITKDNRRHCQACRLKRCVDIGMMKEFILTDEEVQRKREMILKRKEEEALKDSLRPKLSEEQQRIIAILLDAHHKTYDPTYSDFCQFRPPVRVNDGGGSHPSRPNSRHTPSFSGDSSSSCSDHCITSSDMMDSSSFSNLDLSEEDSDDPSVTLELSQLSMLPHLADLVSYSIQKVIGFAKMIPGFRDLTSEDQIVLLKSSAIEVIMLRSNESFTMDDMSWTCGNQDYKYRVSDVTKAGHSLELIEPLIKFQVGLKKLNLHEEEHVLLMAICIVSPDRPGVQDAALIEAIQDRLSNTLQTYIRCRHPPPGSHLLYAKMIQKLADLRSLNEEHSKQYRCLSFQPECSMKLTPLVLEVFGNEIS
B1 was tested, and the binding was “binds”.
